Measured values reported in PMC8467575, “Bacterial-Specific Aggregation and Killing of Immunomodulatory Host Defense Peptides” (Pharmaceuticals, 2021).
In brackets after ≈: the same amount, converted by molar mass.

Assays:
[1] = system: Staphylococcus aureus ATCC 25923; test: microbe, parasite or virus in culture; format: cell-based; conditions: ATCC25923, early log phase, nutrient broth 37 °C, 4–6 h, colony count on blood agar, read-out: MIC S. aureus
Protocol: (§1) E. coli, S. aureus, and S. enterica were cultured in nutrient broth at 37 °C. Listeria was cultured in brain heart infusion broth at 37 °C. Bacteria at early log phase (OD600 ≈ 0.1) were incubated with the peptides at different concentrations (100–3.12 µM) for 4–6 h. After the incubation period, the bacterial culture medium was diluted at different ratios (1 in 2000–2,000,000) in sterile PBS and was spread on blood agar (BA) plates. BA plates were incubated at 37 °C for 24 h, and the number of colonies formed was counted to determine cell viability.

[2] = system: Escherichia coli ATCC 25922; test: microbe, parasite or virus in culture; format: cell-based; conditions: ATCC25922, early log phase, nutrient broth 37 °C, 4–6 h, colony count on blood agar
Protocol: as §1

- MIC [1]: 6.7 µM (≈ 2.34 µg/mL)
- MIC [2]: 26.9 µM (≈ 9.4 µg/mL)
Structure (SMILES): CC1(C)S[C@@H]2[C@H](NC(=O)[C@H](N)c3ccccc3)C(=O)N2[C@H]1C(=O)O [Ampicillin, reference compound]
